# The other results are listed elsewhere or left out. Single values are uncertain, as repeats are few or missing.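 Imaging used 1,536-well plates; nuclei positive for cleaved PARP by antibody were divided by total DNA-stained nuclei to yield the apoptosis fraction. Doses for screening kept most cells viable, and cell lines differ markedly in resting and induced cleaved-PARP levels.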
# System: RVH-421
# Assay: cleaved PARP positive nuclei fraction relative to DMSO control; melanoma cells; higher = more apoptosis
# Conditions: library dose: low library concentration; 72 h
row,Compound,cleaved PARP positive nuclei fraction
1,"COc1cc([C@@H]2c3cc4c(cc3[C@@H](O[C@@H]3O[C@@H]5CO[C@@H](C)O[C@H]5[C@H](O)[C@H]3O)[C@H]3COC(=O)[C@H]23)OCO4)cc(OC)c1O [etoposide] + C/C(O)=C(\C#N)C(=O)Nc1cc(Br)ccc1Br [LFM-A13] (first compound 0.02 µM, partner dose 2 µM)",12.8%
2,"Cn1cnc2c(F)c(Nc3ccc(Br)cc3Cl)c(C(=O)NOCCO)cc21 [selumetinib] + O=C(Oc1ccc([N+](=O)[O-])cc1)N1CCC(C(O)(c2ccc3c(c2)OCO3)c2ccc3c(c2)OCO3)CC1 [JZL184] (first compound 0.015 µM, partner dose 1 µM)",84%
3,"Nc1ncn([C@H]2C[C@H](O)[C@@H](CO)O2)c(=O)n1 [decitabine] + O=C(Oc1ccc([N+](=O)[O-])cc1)N1CCC(C(O)(c2ccc3c(c2)OCO3)c2ccc3c(c2)OCO3)CC1 [JZL184] (first compound 0.1 µM, partner dose 1 µM)",134%
4,"C[As](C)SC[C@H](NC(=O)CC[C@H](N)C(=O)O)C(=O)NCC(=O)O [Darinaparsin] + O=C(O)c1ccc(-c2c[nH]c3ncc(-c4ccccc4)cc23)cc1C1CCCC1 [GSK650394] (first compound 0.4 µM, partner dose 0.16 µM)",70.5%
5,"O=C(Nc1cc(C(F)(F)F)cc(C(F)(F)F)c1)c1cc(Cl)ccc1O + O=C(Oc1ccc([N+](=O)[O-])cc1)N1CCC(C(O)(c2ccc3c(c2)OCO3)c2ccc3c(c2)OCO3)CC1 [JZL184] (first compound 0.016 µM, partner dose 1 µM)",111%
6,"Cn1cc(C2=C(c3cn(C4CCN(Cc5ccccn5)CC4)c4ccccc34)C(=O)NC2=O)c2ccccc21 [Enzastaurin] + O=C(Oc1ccc([N+](=O)[O-])cc1)N1CCC(C(O)(c2ccc3c(c2)OCO3)c2ccc3c(c2)OCO3)CC1 [JZL184] (first compound 0.8 µM, partner dose 1 µM)",61.6%
7,"N.N.[Cl][Pt][Cl] [cisplatin] + CO[C@@H]1[C@H](N(C)C(=O)c2ccccc2)C[C@H]2O[C@]1(C)n1c3ccccc3c3c4c(c5c6ccccc6n2c5c31)C(=O)NC4 [Midostaurin] (first compound 1.6 µM, partner dose 0.08 µM)",86.6%
8,"CCN(CC)CCNC(=O)c1c(C)[nH]c(/C=C2\C(=O)Nc3ccc(F)cc32)c1C [sunitinib] + O=C(Oc1ccc([N+](=O)[O-])cc1)N1CCC(C(O)(c2ccc3c(c2)OCO3)c2ccc3c(c2)OCO3)CC1 [JZL184] (first compound 0.4 µM, partner dose 1 µM)",56.1%
9,"N.N.[Cl][Pt][Cl] [cisplatin] + Oc1cc(-c2nc(-c3ccccc3)[nH]c2-c2ccncc2)ccc1Cl [L779450] (first compound 1.6 µM, partner dose 0.2 µM)",204%
10,"Clc1ccc(Nc2nnc(Cc3ccncc3)c3ccccc23)cc1 [vatalanib] + O=C(Oc1ccc([N+](=O)[O-])cc1)N1CCC(C(O)(c2ccc3c(c2)OCO3)c2ccc3c(c2)OCO3)CC1 [JZL184] (first compound 2 µM, partner dose 1 µM)",46.7%
11,"C[As](C)SC[C@H](NC(=O)CC[C@H](N)C(=O)O)C(=O)NCC(=O)O [Darinaparsin] + OCCn1cc(-c2cnc3nnn(Cc4ccc5ncccc5c4)c3n2)cn1 [PF04217903] (first compound 0.4 µM, partner dose 1 µM)",57.5%
12,"C[C@@H](N)c1ccc(C(=O)Nc2ccnc3[nH]ccc23)cc1 + Cc1cc(SCc2sc(-c3ccc(C(F)(F)F)c(F)c3)nc2C)ccc1OCC(=O)O [GW0742] (first compound 0.4 µM, partner dose 2 µM)",231%
13,"N.N.[Cl][Pt][Cl] [cisplatin] + Cn1cncc1[C@@](N)(c1ccc(Cl)cc1)c1ccc2c(c1)c(-c1cccc(Cl)c1)cc(=O)n2C [tipifarnib] (first compound 1.6 µM, partner dose 0.01 µM)",129%

# Nothing new here: entries from further up.
row,Compound,cleaved PARP positive nuclei fraction
7,"N.N.[Cl][Pt][Cl] [cisplatin] + CO[C@@H]1[C@H](N(C)C(=O)c2ccccc2)C[C@H]2O[C@]1(C)n1c3ccccc3c3c4c(c5c6ccccc6n2c5c31)C(=O)NC4 [Midostaurin] (first compound 1.6 µM, partner dose 0.08 µM)",86.6%
8,"CCN(CC)CCNC(=O)c1c(C)[nH]c(/C=C2\C(=O)Nc3ccc(F)cc32)c1C [sunitinib] + O=C(Oc1ccc([N+](=O)[O-])cc1)N1CCC(C(O)(c2ccc3c(c2)OCO3)c2ccc3c(c2)OCO3)CC1 [JZL184] (first compound 0.4 µM, partner dose 1 µM)",56.1%

# System: SkMel28
# Assay: as above
# Conditions: library dose: low library concentration; 72 h
row,Compound,cleaved PARP positive nuclei fraction
1,"NC1(c2ccc(-c3nc4ccn5c(=O)[nH]nc5c4cc3-c3ccccc3)cc2)CCC1 + O=C(Oc1ccc([N+](=O)[O-])cc1)N1CCC(C(O)(c2ccc3c(c2)OCO3)c2ccc3c(c2)OCO3)CC1 [JZL184] (first compound 0.4 µM, partner dose 1 µM)",220%
2,"COc1ccc(C2=N[C@@H](c3ccc(Cl)cc3)[C@@H](c3ccc(Cl)cc3)N2C(=O)N2CCNC(=O)C2)c(OC(C)C)c1 [Nutlin-3] + C/C(O)=C(\C#N)C(=O)Nc1cc(Br)ccc1Br [LFM-A13] (first compound 0.1 µM, partner dose 2 µM)",131%
3,"O=C(/C=C/c1cccnc1)NCCCCC1CCN(C(=O)c2ccccc2)CC1 + Cc1cc(SCc2sc(-c3ccc(C(F)(F)F)c(F)c3)nc2C)ccc1OCC(=O)O [GW0742] (first compound 0.01 µM, partner dose 2 µM)",66.2%
4,"C[As](C)SC[C@H](NC(=O)CC[C@H](N)C(=O)O)C(=O)NCC(=O)O [Darinaparsin] + NC(=O)Nc1cc(-c2cccc(F)c2)sc1C(=O)N[C@H]1CCCNC1 [AZD7762] (first compound 0.4 µM, partner dose 0.02 µM)",72.1%
5,"C[As](C)SC[C@H](NC(=O)CC[C@H](N)C(=O)O)C(=O)NCC(=O)O [Darinaparsin] + C[C@@H]1CCN(C(=O)CC#N)C[C@@H]1N(C)c1ncnc2[nH]ccc12 [CP690550] (first compound 0.4 µM, partner dose 1 µM)",181%
6,"C[C@]1(O)C[C@@H](c2nc(-c3ccc4ccc(-c5ccccc5)nc4c3)c3c(N)nccn32)C1 + C/C(O)=C(\C#N)C(=O)Nc1cc(Br)ccc1Br [LFM-A13] (first compound 0.4 µM, partner dose 2 µM)",153%
7,"N.N.[Cl][Pt][Cl] [cisplatin] + Cc1cc([N+](=O)[O-])ccc1NS(=O)(=O)c1cc(Cl)ccc1Cl [FH535] (first compound 1.6 µM, partner dose 1 µM)",113%
8,"Cn1cc(C2=C(c3cn(C4CCN(Cc5ccccn5)CC4)c4ccccc34)C(=O)NC2=O)c2ccccc21 [Enzastaurin] + O=C1NC(=O)/C(=C/c2ccc(-c3ccc(F)cc3O)o2)S1 [AS252424] (first compound 0.8 µM, partner dose 1 µM)",84.1%
9,"C=CCNC1=C2C[C@@H](C)C[C@H](OC)[C@H](O)[C@@H](C)/C=C(\C)[C@H](OC(N)=O)[C@@H](OC)/C=C\C=C(/C)C(=O)NC(=CC1=O)C2=O [Tanespimycin] + Cc1cc(SCc2sc(-c3ccc(C(F)(F)F)c(F)c3)nc2C)ccc1OCC(=O)O [GW0742] (first compound 0.002 µM, partner dose 2 µM)",50.3%
10,"O=C(O)c1ccc2c(c1)nc(Nc1cccc(Cl)c1)c1ccncc12 + O=C(Oc1ccc([N+](=O)[O-])cc1)N1CCC(C(O)(c2ccc3c(c2)OCO3)c2ccc3c(c2)OCO3)CC1 [JZL184] (first compound 0.4 µM, partner dose 1 µM)",61.5%
11,"N.N.[Cl][Pt][Cl] [cisplatin] + Cc1cc(N2CCOCC2)cc2[nH]c(-c3c(NC[C@@H](O)c4cccc(Cl)c4)cc[nH]c3=O)nc12 [BMS536924] (first compound 1.6 µM, partner dose 0.2 µM)",108%
12,"CC1(C)CCC(c2ccc(Cl)cc2)=C(CN2CCN(c3ccc(C(=O)NS(=O)(=O)c4ccc(N[C@H](CCN5CCOCC5)CSc5ccccc5)c(S(=O)(=O)C(F)(F)F)c4)cc3)CC2)C1 + O=C(Oc1ccc([N+](=O)[O-])cc1)N1CCC(C(O)(c2ccc3c(c2)OCO3)c2ccc3c(c2)OCO3)CC1 [JZL184] (first compound 0.4 µM, partner dose 1 µM)",176%
13,"Cc1cc(Nc2cc(N3CCN(C)CC3)nc(/C=C/c3ccccc3)n2)n[nH]1 + C/C(O)=C(\C#N)C(=O)Nc1cc(Br)ccc1Br [LFM-A13] (first compound 0.04 µM, partner dose 2 µM)",76%
14,"N.N.[Cl][Pt][Cl] [cisplatin] + OCCn1cc(-c2cnc3nnn(Cc4ccc5ncccc5c4)c3n2)cn1 [PF04217903] (first compound 1.6 µM, partner dose 1 µM)",173%
15,"Cn1cc(C2=C(c3cn(C4CCN(Cc5ccccn5)CC4)c4ccccc34)C(=O)NC2=O)c2ccccc21 [Enzastaurin] + COc1ccc(COc2ccc(Cc3cnc(N)nc3N)cc2OC)cc1 [GW2580] (first compound 0.8 µM, partner dose 1 µM)",46%
16,"Cn1cc(C2=C(c3cn(C4CCN(Cc5ccccn5)CC4)c4ccccc34)C(=O)NC2=O)c2ccccc21 [Enzastaurin] + c1cc(-c2cnn3cc(-c4ccc(OCCN5CCCCC5)cc4)cnc23)ccn1 [Dorsomorphin] (first compound 0.8 µM, partner dose 0.4 µM)",172%
17,"C[As](C)SC[C@H](NC(=O)CC[C@H](N)C(=O)O)C(=O)NCC(=O)O [Darinaparsin] + C=CCn1c(=O)c2cnc(Nc3ccc(N4CCN(C)CC4)cc3)nc2n1-c1cccc(C(C)(C)O)n1 [MK1775] (first compound 0.4 µM, partner dose 0.02 µM)",299%

# From the supplement of paper PMC4604168 (melanoma cell lines)
